Data reported in PMC12548414.
The campaign covered roughly 1,600 compounds. About 20 (1%) showed an effect of 50% or more. The list shows a part of the results.

What follows are compounds tested on T1, E. coli pLC1021 (luc-trpAt trans-translation reporter). Conditions: reporter signal, KKL-35 = 100%; rise means trans-translation inhibition; 2 h, 20 µM.
T1 construct: pLC1021 luc-trpAt reporter strain
Design: species or system Escherichia coli pLC1021; luc-trpAt non-stop luciferase reporter; luminescence rises when trans-translation is inhibited; normalized to KKL-35 and DMSO
How it was run: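 Luminescence (560 nm, 10 min after Bright-Glo) reports luciferase that escapes trans-translation tagging, measured after 2 h room-temperature treatment with 20 µM compound. Each plate was scaled between DMSO (negative) and 20 µM KKL-35 (positive) controls. Compounds scoring one standard deviation above the median counted as positive; at least two biological repeats.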

| SMILES | % activation |
| --- | --- |
| FC(F)(F)c1nnc2ccc(Cl)nn12 [KKL-1868] | 0% |
| CC(C)(C)c1cc(Cl)c(O)c(NC(=S)NC(=O)c2cccc3ccccc23)c1 [KKL-0905] | 0% |
| Cc1nn(-c2ccc(C(F)(F)F)cc2)c(C)c1[C@@H]1C=C[C@@H](NCc2ccc(N(C)C)cc2)C1 [KKL-0309] | 0% |
| CC(C)C(=O)N1CCN(c2ccc(NC(=O)c3ccc([N+](=O)[O-])o3)cc2)CC1 [KKL-1579] | 0% |
| Cc1cc2ncn(CC(O)COc3ccc(F)cc3)c2cc1C (stereo not drawn) [KKL-1261] | 3% |
| Fc1ccc(CNc2nc(-c3ccncc3)cc3ncccc23)cc1 [KKL-0447] | 0% |
| Cc1cccc(OC(C)C(=O)Nc2ccc([N+](=O)[O-])cc2)c1C (stereo not drawn) [KKL-1509] | 4% |
| CC(C)(C)c1ccc(OCC(=O)N2CCCC(c3cc4ncccc4cn3)C2)cc1 (stereo not drawn) [KKL-0502] | 0% |
| COc1cc(CNCc2ccccn2)ccc1OCc1ccc(Cl)cc1Cl [KKL-1663] | 0% |
| CC(C)(C)C(Cn1ccnc1)NCc1c[nH]nc1-c1ccc(-c2ccccc2)cc1 (stereo not drawn) [KKL-0347] | 0% |
| CC(C)COc1ccc(-c2nn(-c3ccccc3)cc2C(=O)Nc2nccs2)cc1 [KKL-0403] | 5% |
| COc1ccc(Nc2nc(NC3CCNC3)nc3cc[nH]c(=O)c23)cc1CC(=O)c1ccccc1 (stereo not drawn) [KKL-1883] | 335% |
| COc1cccc(Nc2c3c(nc4c(-c5ccccc5)c(C)nn24)CCC3)c1 [KKL-1020] | 4% |
| COc1ccc(-c2nsc(SCC(=O)N3CCCC3)n2)cc1 [KKL-1799] | 1% |
| Cc1cc(OCCCCn2ccnc2)ccc1C(C)C [KKL-0423] | 8% |
| Cc1cccc(C)c1OCC(=O)NN=Cc1ccc(O)c([N+](=O)[O-])c1 [KKL-1471] | 8% |
| Cc1ccc2nc(C(F)(F)F)c(C(=O)NCc3cccs3)n2c1 [KKL-1862] | 0% |
| Oc1ccccc1-c1n[nH]c(/C=C/c2ccc(Cl)cc2)n1 [KKL-1554] | 0% |
| Cc1sc(NC(=O)c2ccccc2OCCN(C)C)nc1-c1ccc(F)cc1 [KKL-0472] | 0% |
| COc1ccccc1C1(O)CCN(Cc2[nH]c3ccc(F)cc3c2C)CC1 [KKL-0469] | 4% |
| CCOC(=O)CCc1c(C)c(C#N)c2nc3ccccc3n2c1O [KKL-1420] | 0% |
| Cc1ccc(C(=O)N2CCN(c3ccc(NC(=O)COc4c(C)cc(C)cc4Br)cc3)CC2)cc1 [KKL-0398] | 3% |
| CC(=NNC1=NC(=O)C(Cc2ccc(F)cc2)S1)c1ccc(Cl)cc1 (stereo not drawn) [KKL-0416] | 10% |
| O=C(O)c1ccc(NC(=S)NC(=O)c2ccc(-c3ccccc3)cc2)cc1 [KKL-1292] | 0% |
| CC(=O)N1CCc2cc3nc(C)cc(C)c3cc21 [KKL-1780] | 0% |
| Oc1cccc2ccc(/C=C/c3c(F)cccc3Cl)nc12 [KKL-1108] | 26% |
| Nc1ccc(C(O)CNCCc2ccccc2)cc1O (stereo not drawn) [KKL-1885] | 3% |

Structures shown so far that contain a tert-butyl group:

| SMILES | % activation |
| --- | --- |
| CC(C)(C)c1cc(Cl)c(O)c(NC(=S)NC(=O)c2cccc3ccccc23)c1 [KKL-0905] | 0% |
| CC(C)(C)c1ccc(OCC(=O)N2CCCC(c3cc4ncccc4cn3)C2)cc1 (stereo not drawn) [KKL-0502] | 0% |
| CC(C)(C)C(Cn1ccnc1)NCc1c[nH]nc1-c1ccc(-c2ccccc2)cc1 (stereo not drawn) [KKL-0347] | 0% |

Next part

| SMILES | % activation |
| --- | --- |
| COC(=O)[C@@H]1Cc2c([nH]c3ccccc23)[C@H]2C[C@H](NCc3cccnc3)C[C@@H](c3ccc(OC(F)(F)F)cc3)N21 [KKL-1610] | 0% |
| CCOC(=O)CSc1nc2c(c(-c3ccc(C)o3)c1C#N)CCCC2 [KKL-1085] | 0% |
| Cc1ccccc1OC(=O)c1sc2ccccc2c1Cl [KKL-0721] | 0% |
| CC1CC(C)CN(C(=O)COC(=O)c2cc3ccccc3cc2O)C1 (stereo not drawn) [KKL-0842] | 0% |
| CCC(=Nc1ccccc1O)C1=C(O)CC(c2ccccc2)CC1=O (stereo not drawn) [KKL-1076] | 1% |
| FC(F)(F)c1nnc2ccc(Sc3nnc(-c4ccco4)o3)nn12 [KKL-1754] | 1% |
| O=C(Nc1ccc(Oc2ccccc2)cc1)Nc1cccc([N+](=O)[O-])c1 [KKL-1338] | 0% |
| CSc1ccc(C(=O)C2CCCN(C(=O)c3ccc4c(c3)no[n+]4[O-])C2)cc1 (stereo not drawn) [KKL-0493] | 3% |
| CCc1ccccc1OCCCON1C(=N)N=C(N)NC1(C)C [KKL-1700] | 3% |
| Cc1cccc(-c2cccc(NC(=O)C3CCCN(Cc4cccn4-c4ncccn4)C3)c2)c1 (stereo not drawn) [KKL-1147] | 0% |
| CCOC(=O)c1ccc(NC(=O)/C=C/c2ccc([N+](=O)[O-])s2)cc1 [KKL-0727] | 0% |
| CC(C)c1ccc(NC2CCCN(C(=O)c3ccc4c(c3)no[n+]4[O-])C2)cc1 (stereo not drawn) [KKL-1166] | 1% |
| CCc1cc2c(=O)c(-c3ccc(OC)cc3)coc2cc1OCC(=O)OC [KKL-0909] | 0% |
| O=C(OCC(=O)c1c[nH]c2ccccc12)c1ccc([N+](=O)[O-])s1 [KKL-0815] | 0% |
| O=C(CNC(=O)/C(=C\c1ccccc1)NC(=O)c1ccc(Br)cc1)OCc1ccccc1 [KKL-0977] | 0% |
| CCCN1C(=O)c2cccc3cc([N+](=O)[O-])cc(c23)C1=O [KKL-1354] | 0% |
| O=C(Cc1ccc(F)cc1)Nc1nc(-c2ccccn2)cs1 [KKL-1688] | 13% |
| O=C(c1cc2ccccc2o1)N1CCN(Cc2ccc3c(c2)OCO3)CC1 [KKL-1696] | 0% |
| Cc1ccc(C)c(SCC(=O)OC/C(O)=C(/C#N)c2nc3ccccc3[nH]2)c1 [KKL-0827] | 4% |
| Cc1ccc(NC2CCCN(C(=O)c3ccc4c(c3)no[n+]4[O-])C2)cc1C (stereo not drawn) [KKL-0482] | 3% |
| Cc1ccc(CN(CCCn2ccnc2)Cc2oc3ccccc3c2C)s1 [KKL-0543] | 3% |
| CC(C)=CCCC1(C)C=Cc2c(c(C)cc3c2[nH]c2ccccc23)O1 (stereo not drawn) [KKL-1591] | 0% |
| OC1(c2ccccc2)CCN(Cc2ccc(N3CCCC3)c(F)c2)C1 (stereo not drawn) [KKL-0333] | 0% |
| Fc1ccc(CN(CCCn2ccnc2)Cc2ccccc2F)cc1F [KKL-0708] | 7% |
| O=C(C=Cc1cccs1)N1CCN(Cc2ccc(Br)s2)CC1 [KKL-1861] | 0% |
| Cc1cc(C)n(-c2nc(SCCN(C)C)c3c4c(sc3n2)CCCC4)n1 [KKL-1018] | 7% |
| NS(=O)(=O)c1ccc(Nc2cnc3ccccc3n2)cc1 [KKL-1678] | 4% |
